Paper PMC7903899
These are yes or no findings as the source states them, for the method shown. For part of these data: Binding seen in cells or lysates may run through a third protein. Some results given as binding are weak or reduced against the parent protein; the word gives no strength. For part of these data: Tags and fused reporters may be left off the sequences shown. Each block holds one binder with its values, some of them ahead of it.

The chains behind the UniProt entries cited, without tags or fusion partners.
UniProt Q94AN4: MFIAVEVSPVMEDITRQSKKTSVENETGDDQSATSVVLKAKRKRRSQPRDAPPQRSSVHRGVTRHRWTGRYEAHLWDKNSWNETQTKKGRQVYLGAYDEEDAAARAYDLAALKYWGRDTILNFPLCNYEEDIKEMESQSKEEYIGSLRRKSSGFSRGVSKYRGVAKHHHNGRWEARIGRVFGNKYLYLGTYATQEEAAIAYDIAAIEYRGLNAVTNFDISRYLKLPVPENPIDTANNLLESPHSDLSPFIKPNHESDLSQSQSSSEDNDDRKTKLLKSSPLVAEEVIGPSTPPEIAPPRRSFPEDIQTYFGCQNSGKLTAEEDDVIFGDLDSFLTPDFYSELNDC

Columns and labels:
[1] = target: T1, Armadillo BTB Arabidopsis protein 1 (ABAP1), yeast two-hybrid fusion (Arabidopsis thaliana) (UniProt B7U179); assay: two-hybrid; yeast; pairs cloned in both AD and DBD vectors; growth on SD medium lacking leucine, tryptophan, histidine and adenine (selection of strong interactions); empty vectors as negative controls
T1 sequence: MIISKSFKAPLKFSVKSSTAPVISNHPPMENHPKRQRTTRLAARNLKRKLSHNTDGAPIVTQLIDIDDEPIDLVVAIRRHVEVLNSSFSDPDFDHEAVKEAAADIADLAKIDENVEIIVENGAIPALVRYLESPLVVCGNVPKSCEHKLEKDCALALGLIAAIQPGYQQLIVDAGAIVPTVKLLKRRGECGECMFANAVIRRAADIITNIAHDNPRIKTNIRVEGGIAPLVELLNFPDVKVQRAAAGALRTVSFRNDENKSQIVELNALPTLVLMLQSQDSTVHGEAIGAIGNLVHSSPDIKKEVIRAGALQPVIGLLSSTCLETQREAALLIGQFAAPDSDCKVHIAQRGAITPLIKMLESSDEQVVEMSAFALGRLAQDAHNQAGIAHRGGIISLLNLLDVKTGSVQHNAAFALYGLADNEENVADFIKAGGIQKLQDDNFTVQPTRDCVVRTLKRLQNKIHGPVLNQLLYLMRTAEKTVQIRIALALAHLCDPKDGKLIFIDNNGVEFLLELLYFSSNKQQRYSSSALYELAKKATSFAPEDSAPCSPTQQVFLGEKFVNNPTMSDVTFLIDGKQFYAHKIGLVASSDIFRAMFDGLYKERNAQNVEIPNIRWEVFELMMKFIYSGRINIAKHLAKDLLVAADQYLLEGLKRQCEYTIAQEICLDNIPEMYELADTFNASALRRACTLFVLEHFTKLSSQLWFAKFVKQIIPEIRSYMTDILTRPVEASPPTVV

[2] = target: T2, Armadillo BTB Arabidopsis protein 1 (ABAP1), GST fusion (Arabidopsis thaliana) (UniProt B7U179); assay: pull-down; GST pull-down; ABAP1-GST or GST alone as bait, HIS-tagged protein as prey, both produced in E. coli; Western blot with anti-HIS antibody
T2 sequence: T1 sequence

[3] = target: ARIA-interacting double AP2-domain protein (ADAP) / WRINKLED3 (WRI3), HIS fusion (Arabidopsis thaliana) (UniProt Q94AN4); assay: pull-down; semi in vivo HIS pull-down; HIS-fused protein added to Arabidopsis (flower bud) protein extract, purified on a nickel column, ABAP1 detected with anti-ABAP1 antibody
[4] = target: T3, TCP16, HIS fusion (Arabidopsis thaliana) (UniProt Q9M1U4); assay: as above
T3 sequence: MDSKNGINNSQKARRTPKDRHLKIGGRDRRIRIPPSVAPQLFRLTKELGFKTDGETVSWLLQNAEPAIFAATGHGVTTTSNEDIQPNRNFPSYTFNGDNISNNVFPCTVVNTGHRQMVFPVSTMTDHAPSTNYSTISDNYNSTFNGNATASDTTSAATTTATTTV

[5] = target: ARIA-interacting double AP2-domain protein (ADAP) / WRINKLED3 (WRI3), HIS fusion (Arabidopsis thaliana) (UniProt Q94AN4); assay: native gel or EMSA; EMSA with radiolabeled promoter probe; ABAP1 added to the transcription factor on its DNA probe gives a supershift; ABAP1 alone and GST alone do not bind the probe
[6] = target: T3, TCP16, HIS fusion (Arabidopsis thaliana); assay: as above

binding [1]: binds
B1: TCP16, yeast two-hybrid fusion (protein, UniProt Q9M1U4 1-165)
chain: T3 sequence

binding [2]: binds
B2: TCP16, HIS fusion (protein, UniProt Q9M1U4 1-165)
chain: T3 sequence

binding [3]: binds
binding [4]: binds
B3: Armadillo BTB Arabidopsis protein 1 (ABAP1), endogenous (protein, UniProt B7U179 1-737)
chain: T1 sequence

binding [5]: binds
binding [6]: binds
B4: Armadillo BTB Arabidopsis protein 1 (ABAP1), GST fusion (protein, UniProt B7U179 1-737)
chain: T1 sequence
